Laboratory results: PMC7437177
Results are given in words; binding and its absence hold for the method and conditions named. In cells and extracts the contact can be indirect. Some binding calls cover weakened binding; strength is not graded here. Sequences can lack the tags named with a protein.

Key:
Assay in all cases: co-IP; nuclear lysates (NE-PER kit) of HEK293T cells co-transfected with FLAG-MATR3 and V5-HNRNPM, 24 h after transfection; FLAG antibody overnight at 4 °C, Protein G Dynabeads 4 h at 4 °C; blot for V5; in one panel treated with 1 mg/ml RNase A for 1 h at 4 °C
FLAG-MATR3 F115C (human) = target: T1, FLAG-MATR3 F115C (human) (UniProt P43243)
T1 sequence: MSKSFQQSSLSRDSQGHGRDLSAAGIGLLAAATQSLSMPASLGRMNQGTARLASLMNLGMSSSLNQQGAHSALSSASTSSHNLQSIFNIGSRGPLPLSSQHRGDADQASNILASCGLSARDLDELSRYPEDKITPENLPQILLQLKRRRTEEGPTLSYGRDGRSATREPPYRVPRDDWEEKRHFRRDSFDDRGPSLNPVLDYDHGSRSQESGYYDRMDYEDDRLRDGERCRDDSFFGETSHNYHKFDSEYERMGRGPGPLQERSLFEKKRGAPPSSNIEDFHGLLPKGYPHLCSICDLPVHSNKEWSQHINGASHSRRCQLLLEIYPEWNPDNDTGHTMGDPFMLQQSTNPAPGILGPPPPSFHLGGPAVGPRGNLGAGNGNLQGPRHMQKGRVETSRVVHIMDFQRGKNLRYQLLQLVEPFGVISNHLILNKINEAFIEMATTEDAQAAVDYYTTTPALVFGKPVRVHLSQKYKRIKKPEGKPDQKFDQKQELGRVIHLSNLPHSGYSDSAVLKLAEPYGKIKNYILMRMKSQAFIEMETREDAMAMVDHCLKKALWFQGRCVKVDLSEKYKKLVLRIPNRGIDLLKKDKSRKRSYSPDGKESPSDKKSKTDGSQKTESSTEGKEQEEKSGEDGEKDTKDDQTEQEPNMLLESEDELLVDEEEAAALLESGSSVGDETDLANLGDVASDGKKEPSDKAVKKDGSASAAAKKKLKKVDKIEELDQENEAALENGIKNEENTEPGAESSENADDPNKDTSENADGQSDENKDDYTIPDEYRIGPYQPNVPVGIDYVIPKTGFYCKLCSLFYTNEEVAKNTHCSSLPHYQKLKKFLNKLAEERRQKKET

FLAG-MATR3 S85C (human) = target: T2, FLAG-MATR3 S85C (human) (UniProt P43243)
T2 sequence: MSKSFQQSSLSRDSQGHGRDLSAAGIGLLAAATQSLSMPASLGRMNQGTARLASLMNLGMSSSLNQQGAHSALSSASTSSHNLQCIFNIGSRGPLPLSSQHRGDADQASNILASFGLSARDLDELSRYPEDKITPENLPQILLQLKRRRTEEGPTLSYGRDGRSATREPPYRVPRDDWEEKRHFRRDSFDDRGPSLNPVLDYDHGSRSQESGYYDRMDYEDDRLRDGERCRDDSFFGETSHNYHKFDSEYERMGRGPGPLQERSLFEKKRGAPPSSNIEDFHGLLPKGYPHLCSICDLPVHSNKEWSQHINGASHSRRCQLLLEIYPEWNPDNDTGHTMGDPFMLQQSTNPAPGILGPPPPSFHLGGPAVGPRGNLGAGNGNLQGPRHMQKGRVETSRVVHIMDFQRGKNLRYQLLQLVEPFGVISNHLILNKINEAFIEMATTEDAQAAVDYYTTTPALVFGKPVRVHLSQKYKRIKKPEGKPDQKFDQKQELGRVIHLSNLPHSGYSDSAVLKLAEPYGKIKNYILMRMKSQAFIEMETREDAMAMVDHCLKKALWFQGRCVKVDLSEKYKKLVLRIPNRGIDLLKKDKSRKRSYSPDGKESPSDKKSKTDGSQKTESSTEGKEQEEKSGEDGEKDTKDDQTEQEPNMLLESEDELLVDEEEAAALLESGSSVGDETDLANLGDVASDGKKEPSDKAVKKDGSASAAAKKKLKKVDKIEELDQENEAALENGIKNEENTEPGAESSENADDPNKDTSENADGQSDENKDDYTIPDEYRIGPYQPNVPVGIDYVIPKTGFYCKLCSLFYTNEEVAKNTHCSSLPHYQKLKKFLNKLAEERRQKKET

[1] = target: T3, FLAG-MATR3 WT (Matrin-3, wild type) (human) (UniProt P43243)
T3 sequence: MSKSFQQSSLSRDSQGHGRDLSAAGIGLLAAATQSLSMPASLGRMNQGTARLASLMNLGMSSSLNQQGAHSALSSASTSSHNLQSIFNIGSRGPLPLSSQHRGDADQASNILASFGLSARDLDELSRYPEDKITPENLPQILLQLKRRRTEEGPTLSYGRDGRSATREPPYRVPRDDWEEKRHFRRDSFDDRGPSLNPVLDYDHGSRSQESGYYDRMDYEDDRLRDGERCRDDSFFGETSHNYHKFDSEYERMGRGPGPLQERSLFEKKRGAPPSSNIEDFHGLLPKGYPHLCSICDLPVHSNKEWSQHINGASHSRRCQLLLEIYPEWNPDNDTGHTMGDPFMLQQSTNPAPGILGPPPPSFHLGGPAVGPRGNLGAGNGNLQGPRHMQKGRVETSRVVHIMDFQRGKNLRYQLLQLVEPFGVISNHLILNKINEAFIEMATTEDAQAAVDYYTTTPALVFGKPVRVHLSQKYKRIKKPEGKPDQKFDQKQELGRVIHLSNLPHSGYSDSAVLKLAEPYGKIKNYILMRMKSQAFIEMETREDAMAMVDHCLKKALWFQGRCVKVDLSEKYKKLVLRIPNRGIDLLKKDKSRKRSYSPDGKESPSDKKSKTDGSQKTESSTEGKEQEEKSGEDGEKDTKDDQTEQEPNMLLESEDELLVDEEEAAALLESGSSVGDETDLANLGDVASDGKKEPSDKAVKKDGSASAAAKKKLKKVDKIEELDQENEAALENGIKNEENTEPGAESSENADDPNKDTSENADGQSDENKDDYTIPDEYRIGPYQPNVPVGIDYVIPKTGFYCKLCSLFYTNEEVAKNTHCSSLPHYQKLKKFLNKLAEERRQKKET

- binding (FLAG-MATR3 F115C (human)): binds
- binding (FLAG-MATR3 S85C (human)): binds
- binding [1]: binds
B1: V5-hnRNPM (protein, UniProt P52272 1-730)
chain: MAAGVEAAAEVAATEIKMEEESGAPGVPSGNGAPGPKGEGERPAQNEKRKEKNIKRGGNRFEPYANPTKRYRAFITNIPFDVKWQSLKDLVKEKVGEVTYVELLMDAEGKSRGCAVVEFKMEESMKKAAEVLNKHSLSGRPLKVKEDPDGEHARRAMQKVMATTGGMGMGPGGPGMITIPPSILNNPNIPNEIIHALQAGRLGSTVFVANLDYKVGWKKLKEVFSMAGVVVRADILEDKDGKSRGIGTVTFEQSIEAVQAISMFNGQLLFDRPMHVKMDERALPKGDFFPPERPQQLPHGLGGIGMGLGPGGQPIDANHLNKGIGMGNIGPAGMGMEGIGFGINKMGGMEGPFGGGMENMGRFGSGMNMGRINEILSNALKRGEIIAKQGGGGGGGSVPGIERMGPGIDRLGGAGMERMGAGLGHGMDRVGSEIERMGLVMDRMGSVERMGSGIERMGPLGLDHMASSIERMGQTMERIGSGVERMGAGMGFGLERMAAPIDRVGQTIERMGSGVERMGPAIERMGLSMERMVPAGMGAGLERMGPVMDRMATGLERMGANNLERMGLERMGANSLERMGLERMGANSLERMGPAMGPALGAGIERMGLAMGGGGGASFDRAIEMERGNFGGSFAGSFGGAGGHAPGVARKACQIFVRNLPFDFTWKMLKDKFNECGHVLYADIKMENGKSKGCGVVKFESPEVAERACRMMNGMKLSGREIDVRIDRNA
